The values below are quoted from earlier work in patent US20210405025A1, “IDENTIFYING COMPOUNDS FOR TREATING CANCER AND USE THEREOF” (THE UAB RESEARCH FOUNDATION, priority 2018, published 2021).

One may read the Cmax as the maximum level reached in the sampled fluid or tissue.

For the series the following is noted: read-out: In vivo cMax; plasma concentration achievable in vivo at the FDA-recommended dose and schedule; cited from earlier work.

Regarding `CC(C)c1c(C(=O)Nc2ccccc2)c(-c2ccccc2)c(-c2ccc(F)cc2)n1CC[C@@H](O)C[C@@H](O)CC(=O)[O-].CC(C)c1c(C(=O)Nc2ccccc2)c(-c2ccccc2)c(-c2ccc(F)cc2)n1CC[C@@H](O)C[C@@H](O)CC(=O)[O-].[Ca+2]` [ATORVASTATIN CALCIUM], the Cmax was 10 nM.
